# Data as given in PubChem BioAssay AID1259285 (Sanger Institute, 2017).
# Aim: 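Kinase knock-downs that reduce colorectal cancer cell viability or act with drugs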 (primary screen)
# System: human HCC56 colorectal cancer cells
# Reagents: siRNA pool against human genes
# Challenge: DMSO vehicle, or anchor drug BYL719 at 1 µM, cetuximab at 5 µg/ml, or trametinib at 10 nM
# Measurement: 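Viability as a ratio to non-targeting pool wells, averaged over replicates and turned into a robust z-score; synergy scores with BYL719, cetuximab or trametinib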
# Direction: viability robust z-score, no drug: higher = more viable cells, weaker knock-down effect; viability vs non-targeting pool, no drug: higher = more viable cells; synergy score with BYL719: higher = stronger combined killing with BYL719
# Active means: 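a knock-down counts as essential if its viability z-score without drug is under -3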
# Meaning of the calls: active = essential without drug; inactive = no change without drug
# This is an unselected part of 794 reagents. 20 of them (2.5%) count as active. 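Calls rest on the drug-free arm alone and ignore synergy scores; viability ratios seem to be capped at 1.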 Not all columns of the deposit are shown. Not given: the amount of reagent, the time to read-out.
gene,PubChem SID,"viability robust z-score, no drug","viability vs non-targeting pool, no drug",synergy score with BYL719,activity call
SRGAP3,SID152151814,0.458,1,-0.162,inactive
ZC3H11A,SID135624155,0.458,1,-0.162,inactive
INSR,SID152149459,0.458,1,-0.162,inactive
TRIB3,SID56478723,0.458,1,-0.162,inactive
CDK14,SID56478888,0.458,1,-0.0683,inactive
PIP5KL1,SID56479217,-1.19,0.858,-0.12,inactive
GRK4,SID152155634,-0.301,0.935,0.078,inactive
NTRK2,SID152152425,0.458,1,-0.0298,inactive
KMT2B,SID134314396,0.458,1,-0.114,inactive
MSR1,SID152150198,0.458,1,0.113,inactive
TEC,SID152148252,0.458,1,-0.0628,inactive
RPS6KA6,SID152153100,0.458,1,0.0448,inactive
ATRX,SID152156576,0.458,1,-0.162,inactive
MAP4K2,SID56478700,0.458,1,0.132,inactive
TEK,SID152152932,0.458,1,-0.162,inactive
CDC7,SID56478594,-0.848,0.888,0.121,inactive
DCLK2,SID152154613,-2.77,0.723,-0.0505,inactive
DGKB,SID56479090,0.0169,0.962,0.197,inactive
PIK3R3,SID56479284,0.458,1,-0.162,inactive
MST1R,SID152152898,0.458,1,-0.0669,inactive
CHD4,SID152156048,-3.96,0.62,0.0147,active
DNMT3A,SID251761412,-0.52,0.916,-0.232,inactive
PXK,SID152149443,0.458,1,-0.0021,inactive
EPHB3,SID56478503,0.458,1,0.0248,inactive
PRAG1,SID152147410,0.458,1,0.152,inactive
PHKG1,SID152147540,0.458,1,0.0202,inactive
MAPK12,SID152156302,0.458,1,-0.162,inactive
PKLR,SID152148534,0.458,1,-0.162,inactive
PIK3CD,SID135621250,0.458,1,-0.162,inactive
MAP4K5,SID56478702,-1.01,0.874,-0.0112,inactive
PLK1,SID56478632,-5.49,0.489,0.0488,active
CKS2,SID56479182,0.458,1,-0.162,inactive
ASPM,SID135623115,0.458,1,-0.132,inactive
PIK3R5,SID152147687,0.458,1,-0.00563,inactive
BTK,SID56478487,0.458,1,0.0248,inactive
PIM1,SID56478736,0.458,1,0.108,inactive
MAP3K5,SID56478697,0.458,1,-0.0506,inactive
PTK2B,SID56478543,0.458,1,0.0145,inactive
RIOK2,SID134310711,0.458,1,-0.0955,inactive
UCK1,SID56478768,0.458,1,-0.00888,inactive
VRK3,SID135620981,0.458,1,-0.162,inactive
PRKACG,SID56478826,0.458,1,-0.00618,inactive
CDK7,SID152150057,-0.241,0.94,0.05,inactive
CIB2,SID134316517,-2.57,0.74,-0.0477,inactive
PAK1,SID135620692,-0.0292,0.958,0.03,inactive
FGFR3,SID56478513,0.458,1,-0.162,inactive
EPHA5,SID152153658,0.458,1,-0.13,inactive
SIK2,SID135620885,-3.12,0.693,-0.0583,active
BUB1,SID152152440,0.458,1,0.0599,inactive
DYRK3,SID152153037,0.458,1,-0.162,inactive

5 successive records from above, for reference:
gene,PubChem SID,"viability robust z-score, no drug","viability vs non-targeting pool, no drug",synergy score with BYL719,activity call
NTRK2,SID152152425,0.458,1,-0.0298,inactive
KMT2B,SID134314396,0.458,1,-0.114,inactive
MSR1,SID152150198,0.458,1,0.113,inactive
TEC,SID152148252,0.458,1,-0.0628,inactive
RPS6KA6,SID152153100,0.458,1,0.0448,inactive
